Experimental data reported in article PMC10624633.
These are yes or no findings as the source states them, for the method shown. Binding seen in cells or lysates may run through a third protein. These calls come from enrichment with a bait or labelling near it, and not all partners need be listed.

The chains behind the UniProt entries cited, without tags or fusion partners.
UniProt O75362: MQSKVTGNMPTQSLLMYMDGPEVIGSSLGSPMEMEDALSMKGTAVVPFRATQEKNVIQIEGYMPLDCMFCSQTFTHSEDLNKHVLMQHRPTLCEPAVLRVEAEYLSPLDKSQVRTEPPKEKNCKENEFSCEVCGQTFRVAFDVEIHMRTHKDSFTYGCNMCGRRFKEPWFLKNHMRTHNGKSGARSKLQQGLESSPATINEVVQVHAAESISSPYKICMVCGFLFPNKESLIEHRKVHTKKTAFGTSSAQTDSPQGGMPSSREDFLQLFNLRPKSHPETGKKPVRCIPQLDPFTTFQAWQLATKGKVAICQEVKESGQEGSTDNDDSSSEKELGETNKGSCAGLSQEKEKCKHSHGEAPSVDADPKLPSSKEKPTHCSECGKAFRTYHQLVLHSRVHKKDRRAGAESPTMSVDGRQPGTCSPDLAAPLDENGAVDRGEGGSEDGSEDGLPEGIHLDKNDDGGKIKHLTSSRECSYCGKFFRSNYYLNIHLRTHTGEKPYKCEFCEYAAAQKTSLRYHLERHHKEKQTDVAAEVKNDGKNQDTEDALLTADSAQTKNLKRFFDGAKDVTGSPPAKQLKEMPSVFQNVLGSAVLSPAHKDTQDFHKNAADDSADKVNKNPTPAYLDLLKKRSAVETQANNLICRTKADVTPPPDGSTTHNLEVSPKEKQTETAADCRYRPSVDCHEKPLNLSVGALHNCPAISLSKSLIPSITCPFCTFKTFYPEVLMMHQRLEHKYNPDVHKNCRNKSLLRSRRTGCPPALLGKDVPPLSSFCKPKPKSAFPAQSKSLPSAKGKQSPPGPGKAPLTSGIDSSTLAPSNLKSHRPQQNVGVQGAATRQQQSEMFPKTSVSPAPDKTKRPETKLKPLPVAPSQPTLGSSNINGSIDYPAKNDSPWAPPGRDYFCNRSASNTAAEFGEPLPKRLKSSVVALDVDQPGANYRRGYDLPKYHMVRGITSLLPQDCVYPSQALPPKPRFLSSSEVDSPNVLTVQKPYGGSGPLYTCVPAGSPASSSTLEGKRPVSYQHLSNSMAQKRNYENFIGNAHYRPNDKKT

Target: n-Flag-ZNF217 (wild type) (human) (UniProt O75362)
Assay: affinity purification with mass spectrometry; lysates of ZNF217^KO cells ectopically expressing n-Flag-ZNF217 variants incubated with anti-FLAG M2 magnetic beads at 4 °C overnight; washed twice with TBS + 0.1% NP40 and twice with TBS; label-free (LFQ) mass spectrometry, compared to no-Flag ZNF217^WT control

- binding: binds
Substance: CoREST 3 (from UniProt Q9P2K3 1-495)
